PubChem BioAssay AID1259308 – NCATS | 2017

- Test: 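Candidate targets for better recombinant protein yield in mammalian cells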 (primary screen)
- Cell system: human HEK293 embryonic kidney cells stably expressing firefly luciferase (HEK-CMV-Luc2-Hygro)
- Reagent: single siRNA against human genes, 0.8 pmol siRNA per well
- Timing: 72 h
- Measurement: 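Reporter luminescence and viable-cell signal on separate replicate plates, given as percent of non-targeting control and median/MAD z-scores, plus per-cell luciferase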
- Direction: total luciferase, z-score: higher = more reporter protein produced
- Rule for the call: 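An siRNA counts as active if its total luciferase robust z-score exceeds 3; genes with two or more such siRNAs out of three were retested with fresh siRNAs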
- Calls: active = raised luciferase; inactive = no rise
The deposit covers about 59,000 reagents; this is an unselected part. In the full data, about 1,510 (2.6%) are marked active. 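Calls use total luciferase alone and ignore viability, so some active siRNAs may act by altering cell number.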 Entries without a mark were called inactive. Further read-outs or replicates are left out here.

With IRAK1 [SID160745089], what was measured?
total luciferase, z-score: -0.964

How did the screen score IRAK1 [SID160745197]?
total luciferase, z-score: -0.502

For IRAK1 [SID160745303], what was measured?
total luciferase, z-score: 0.306

What is on record for SERPINF1 [SID160714091]?
total luciferase, z-score: -0.551

With SERPINF1 [SID160714092], how do the results read?
total luciferase, z-score: 0.651

Which result is listed for SERPINF1 [SID160731400]?
total luciferase, z-score: -0.467

How did the screen score CASD1 [SID160748131]?
total luciferase, z-score: 3.22 (active)

What did the screen give for CASD1 [SID160748132]?
total luciferase, z-score: -0.229

For CASD1 [SID160748133], what does the deposit list?
total luciferase, z-score: -0.349

For RRS1 [SID160735726], how do the results read?
total luciferase, z-score: 0.21

For RRS1 [SID160735727], what was measured?
total luciferase, z-score: -1.33

What is on record for RRS1 [SID160735728]?
total luciferase, z-score: -0.04

With EIF2S2P4 [SID160726661], what does the deposit list?
total luciferase, z-score: 0.0185

Which result is listed for EIF2S2P4 [SID160726662]?
total luciferase, z-score: 0.125

For EIF2S2P4 [SID160726663], what does the deposit list?
total luciferase, z-score: -2.82

What did the screen give for PKP1 [SID160714398]?
total luciferase, z-score: -2.27

What is on record for PKP1 [SID160714399]?
total luciferase, z-score: -2.23

With PKP1 [SID160714400], what was measured?
total luciferase, z-score: 1.57

What is on record for ARMCX2 [SID160723179]?
total luciferase, z-score: -0.604

For ARMCX2 [SID160723180], what does the deposit list?
total luciferase, z-score: -0.169

For ARMCX2 [SID160723181], what was measured?
total luciferase, z-score: -0.46

How did the screen score TRPV5 [SID160745023]?
total luciferase, z-score: 0.567

With TRPV5 [SID160745024], how do the results read?
total luciferase, z-score: -0.408

For TRPV5 [SID160745025], what was measured?
total luciferase, z-score: -1.84

For PSMA6 [SID160774646], what was measured?
total luciferase, z-score: -0.225

For PSMA6 [SID160774656], how do the results read?
total luciferase, z-score: 1.27

What is on record for PSMA6 [SID160774665]?
total luciferase, z-score: 0.518

Which result is listed for IL6 [SID160775721]?
total luciferase, z-score: -0.119

How did the screen score IL6 [SID160775722]?
total luciferase, z-score: -1.91

How did the screen score IL6 [SID160775723]?
total luciferase, z-score: 0.889

With LSM14A [SID160737578], what was measured?
total luciferase, z-score: 3.04 (active)

What is on record for LSM14A [SID160737579]?
total luciferase, z-score: -0.144

What did the screen give for LSM14A [SID160737580]?
total luciferase, z-score: -0.573

Which result is listed for QTMAN [SID160749255]?
total luciferase, z-score: -1.69

For QTMAN [SID160749256], what does the deposit list?
total luciferase, z-score: -0.916

For QTMAN [SID160749257], what was measured?
total luciferase, z-score: 0.321

What is on record for GABRR2 [SID160768753]?
total luciferase, z-score: -1.2

With GABRR2 [SID160768761], what was measured?
total luciferase, z-score: 0.397

How did the screen score GABRR2 [SID160768771]?
total luciferase, z-score: 0.415

What did the screen give for RNF225 [SID160725982]?
total luciferase, z-score: -2.02

For RNF225 [SID160725983], what does the deposit list?
total luciferase, z-score: 0.0253

What is on record for RNF225 [SID160725984]?
total luciferase, z-score: -1.13

A run of entries taken from the entries so far:
PKP1 [SID160714400]: total luciferase, z-score = 1.57
ARMCX2 [SID160723179]: total luciferase, z-score = -0.604
ARMCX2 [SID160723180]: total luciferase, z-score = -0.169
ARMCX2 [SID160723181]: total luciferase, z-score = -0.46
TRPV5 [SID160745023]: total luciferase, z-score = 0.567
TRPV5 [SID160745024]: total luciferase, z-score = -0.408
TRPV5 [SID160745025]: total luciferase, z-score = -1.84
